The record followed here is article PMC10881398, “O-glycosylation of the transcription factor SPATULA promotes style development in Arabidopsis” (Nature Plants, 2024).

In assay [1] the target is T1, SPY–cLuc (35S::SPY–cLuc) (Arabidopsis thaliana) (UniProt Q96301).
T1 sequence: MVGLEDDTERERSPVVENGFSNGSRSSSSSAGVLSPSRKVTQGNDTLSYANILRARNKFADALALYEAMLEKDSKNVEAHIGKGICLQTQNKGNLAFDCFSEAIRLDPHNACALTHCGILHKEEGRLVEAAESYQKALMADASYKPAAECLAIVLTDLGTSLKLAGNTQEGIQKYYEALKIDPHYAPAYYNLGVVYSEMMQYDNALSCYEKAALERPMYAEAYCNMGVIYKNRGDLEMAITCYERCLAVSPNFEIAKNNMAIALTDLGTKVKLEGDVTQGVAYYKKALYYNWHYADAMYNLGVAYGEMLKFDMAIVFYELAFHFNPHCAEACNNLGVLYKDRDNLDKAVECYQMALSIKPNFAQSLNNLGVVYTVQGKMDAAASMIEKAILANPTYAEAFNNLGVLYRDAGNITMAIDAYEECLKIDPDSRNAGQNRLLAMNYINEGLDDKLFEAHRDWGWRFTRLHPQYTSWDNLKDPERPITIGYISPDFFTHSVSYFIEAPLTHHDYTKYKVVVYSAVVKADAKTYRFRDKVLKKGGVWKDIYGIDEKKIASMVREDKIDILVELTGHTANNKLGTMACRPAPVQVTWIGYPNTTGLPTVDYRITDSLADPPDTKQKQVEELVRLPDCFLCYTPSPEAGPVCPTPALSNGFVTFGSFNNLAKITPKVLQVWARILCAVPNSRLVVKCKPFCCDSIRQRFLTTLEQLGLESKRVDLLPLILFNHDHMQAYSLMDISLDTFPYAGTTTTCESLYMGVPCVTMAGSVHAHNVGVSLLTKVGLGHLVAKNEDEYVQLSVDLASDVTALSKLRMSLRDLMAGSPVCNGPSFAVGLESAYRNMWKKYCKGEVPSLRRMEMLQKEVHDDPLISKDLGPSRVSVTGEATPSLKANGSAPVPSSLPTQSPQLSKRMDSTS
Nature of the assay: split reporter; split-luciferase complementation in N. benthamiana leaves, 35S::SPT–nLuc co-infiltrated with 35S::SEC–cLuc or 35S::SPY–cLuc (with P19), 48 h, 0.4 mM D-luciferin; empty nLuc and cLuc vectors as controls.

Assay [2] has as its target T2, SEC–cLuc (35S::SEC–cLuc) (Arabidopsis thaliana) (UniProt Q9M8Y0).
T2 sequence: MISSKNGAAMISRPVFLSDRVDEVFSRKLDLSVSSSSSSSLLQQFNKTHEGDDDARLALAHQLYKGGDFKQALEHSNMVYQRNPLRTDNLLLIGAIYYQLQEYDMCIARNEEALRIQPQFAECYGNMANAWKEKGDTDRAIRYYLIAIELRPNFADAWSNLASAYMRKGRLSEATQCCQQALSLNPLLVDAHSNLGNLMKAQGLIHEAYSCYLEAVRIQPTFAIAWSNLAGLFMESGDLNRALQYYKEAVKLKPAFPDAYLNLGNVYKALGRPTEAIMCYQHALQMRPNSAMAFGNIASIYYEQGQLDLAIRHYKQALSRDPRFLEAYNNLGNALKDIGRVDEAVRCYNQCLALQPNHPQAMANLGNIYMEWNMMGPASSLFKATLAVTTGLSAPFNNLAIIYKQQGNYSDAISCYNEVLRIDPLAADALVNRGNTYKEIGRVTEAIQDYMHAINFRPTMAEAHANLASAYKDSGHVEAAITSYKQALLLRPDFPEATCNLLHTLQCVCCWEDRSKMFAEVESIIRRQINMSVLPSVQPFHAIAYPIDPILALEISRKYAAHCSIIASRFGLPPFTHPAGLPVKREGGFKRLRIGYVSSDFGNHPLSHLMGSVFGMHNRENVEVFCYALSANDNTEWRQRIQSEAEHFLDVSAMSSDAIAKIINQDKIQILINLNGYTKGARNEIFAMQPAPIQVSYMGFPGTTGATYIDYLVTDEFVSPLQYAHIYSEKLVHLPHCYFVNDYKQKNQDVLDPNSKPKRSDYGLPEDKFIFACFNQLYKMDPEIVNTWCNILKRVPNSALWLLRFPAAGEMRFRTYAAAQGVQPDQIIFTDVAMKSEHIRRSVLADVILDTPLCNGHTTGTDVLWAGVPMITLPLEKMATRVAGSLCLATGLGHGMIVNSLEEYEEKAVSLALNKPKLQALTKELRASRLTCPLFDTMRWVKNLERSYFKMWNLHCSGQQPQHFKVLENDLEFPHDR
The description is as above.

Assay [3] has as its target T3, SPY full length, yeast two-hybrid bait (BD) (Arabidopsis thaliana) (UniProt Q96301).
T3 sequence: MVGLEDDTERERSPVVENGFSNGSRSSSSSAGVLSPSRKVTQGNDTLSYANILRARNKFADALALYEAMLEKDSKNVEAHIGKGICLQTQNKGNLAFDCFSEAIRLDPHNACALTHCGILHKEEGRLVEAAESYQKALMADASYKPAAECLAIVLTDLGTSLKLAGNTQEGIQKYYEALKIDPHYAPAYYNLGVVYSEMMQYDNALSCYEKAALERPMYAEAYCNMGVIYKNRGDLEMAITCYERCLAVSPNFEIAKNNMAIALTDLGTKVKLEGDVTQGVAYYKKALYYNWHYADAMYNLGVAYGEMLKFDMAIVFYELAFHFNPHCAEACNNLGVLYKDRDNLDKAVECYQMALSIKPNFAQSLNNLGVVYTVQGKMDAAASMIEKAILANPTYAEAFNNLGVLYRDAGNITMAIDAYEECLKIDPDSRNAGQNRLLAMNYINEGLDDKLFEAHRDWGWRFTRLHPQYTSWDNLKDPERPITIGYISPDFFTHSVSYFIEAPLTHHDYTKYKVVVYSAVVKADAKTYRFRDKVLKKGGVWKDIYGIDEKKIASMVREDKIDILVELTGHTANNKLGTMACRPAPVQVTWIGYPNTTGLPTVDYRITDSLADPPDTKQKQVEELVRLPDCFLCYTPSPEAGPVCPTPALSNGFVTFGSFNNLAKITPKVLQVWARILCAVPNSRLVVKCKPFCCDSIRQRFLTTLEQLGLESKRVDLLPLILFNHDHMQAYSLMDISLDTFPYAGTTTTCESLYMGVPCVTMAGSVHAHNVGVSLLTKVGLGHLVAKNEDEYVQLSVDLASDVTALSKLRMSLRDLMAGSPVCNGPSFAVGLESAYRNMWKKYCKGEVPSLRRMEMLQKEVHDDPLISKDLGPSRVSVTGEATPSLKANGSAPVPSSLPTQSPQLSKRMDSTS
Nature of the assay: two-hybrid; yeast AH109; SEC and SPY as bait (BD), SPT as prey (AD); growth on SD/−Ade/−His/−Leu/−Trp and with 2.5 mM 3-AT, serial dilutions, five days at 28 °C.

The target of assay [4] is T4, SEC full length, yeast two-hybrid bait (BD) (Arabidopsis thaliana) (UniProt Q9M8Y0).
T4 sequence: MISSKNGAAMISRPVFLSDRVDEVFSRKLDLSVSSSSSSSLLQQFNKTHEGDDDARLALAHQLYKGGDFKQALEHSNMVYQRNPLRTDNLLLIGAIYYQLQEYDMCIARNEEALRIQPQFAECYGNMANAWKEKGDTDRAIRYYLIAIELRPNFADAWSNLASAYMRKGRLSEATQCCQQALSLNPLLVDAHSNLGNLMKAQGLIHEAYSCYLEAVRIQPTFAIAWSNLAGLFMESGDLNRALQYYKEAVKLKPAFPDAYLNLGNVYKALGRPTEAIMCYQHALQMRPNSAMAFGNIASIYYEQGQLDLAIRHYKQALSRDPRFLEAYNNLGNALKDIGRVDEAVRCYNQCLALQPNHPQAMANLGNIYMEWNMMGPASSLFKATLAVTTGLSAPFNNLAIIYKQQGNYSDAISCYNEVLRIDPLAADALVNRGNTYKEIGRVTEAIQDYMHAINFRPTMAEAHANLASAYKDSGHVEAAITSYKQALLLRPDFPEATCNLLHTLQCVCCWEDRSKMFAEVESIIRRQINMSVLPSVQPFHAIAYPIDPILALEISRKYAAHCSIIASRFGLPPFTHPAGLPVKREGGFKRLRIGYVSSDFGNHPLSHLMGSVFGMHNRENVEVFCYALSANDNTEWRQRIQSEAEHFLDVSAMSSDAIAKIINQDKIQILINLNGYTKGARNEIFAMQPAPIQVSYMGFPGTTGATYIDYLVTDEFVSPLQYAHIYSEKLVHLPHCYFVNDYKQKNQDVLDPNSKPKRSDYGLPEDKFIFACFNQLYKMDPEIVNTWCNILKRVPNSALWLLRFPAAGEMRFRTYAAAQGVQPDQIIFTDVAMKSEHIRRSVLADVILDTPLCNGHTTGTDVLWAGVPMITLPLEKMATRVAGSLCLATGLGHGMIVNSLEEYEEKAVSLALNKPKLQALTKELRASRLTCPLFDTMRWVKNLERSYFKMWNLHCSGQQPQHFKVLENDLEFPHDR
The description is as above.

No constants are given. Whether binding was seen depends on the method and setting. For some of these results: Binding seen in cells or lysates may run through a third protein. Some binding calls cover weakened binding; strength is not graded here. Tags and fused reporters may be left off the sequences shown.

B1: full-length SPT–nLuc (35S::SPT–nLuc) (protein, UniProt Q9FUA4 1-373)
chain: MISQREEREEKKQRVMGDKKLISSSSSSSVYDTRINHHLHHPPSSSDEISQFLRHIFDRSSPLPSYYSPATTTTTASLIGVHGSGDPHADNSRSLVSHHPPSDSVLMSKRVGDFSEVLIGGGSGSAAACFGFSGGGNNNNVQGNSSGTRVSSSSVGASGNETDEYDCESEEGGEAVVDEAPSSKSGPSSRSSSKRCRAAEVHNLSEKRRRSRINEKMKALQSLIPNSNKTDKASMLDEAIEYLKQLQLQVQMLTMRNGINLHPLCLPGTTLHPLQLSQIRPPEATNDPLLNHTNQFASTSNAPEMINTVASSYALEPSIRSHFGPFPLLTSPVEMSREGGLTHPRLNIGHSNANITGEQALFDGQPDLKDRIT
B1: the binding entry in assay [1] and in assay [2] was “binds” in each case.

B2: SPT full length, yeast two-hybrid prey (AD) (protein, UniProt Q9FUA4 1-373)
chain: MISQREEREEKKQRVMGDKKLISSSSSSSVYDTRINHHLHHPPSSSDEISQFLRHIFDRSSPLPSYYSPATTTTTASLIGVHGSGDPHADNSRSLVSHHPPSDSVLMSKRVGDFSEVLIGGGSGSAAACFGFSGGGNNNNVQGNSSGTRVSSSSVGASGNETDEYDCESEEGGEAVVDEAPSSKSGPSSRSSSKRCRAAEVHNLSEKRRRSRINEKMKALQSLIPNSNKTDKASMLDEAIEYLKQLQLQVQMLTMRNGINLHPLCLPGTTLHPLQLSQIRPPEATNDPLLNHTNQFASTSNAPEMINTVASSYALEPSIRSHFGPFPLLTSPVEMSREGGLTHPRLNIGHSNANITGEQALFDGQPDLKDRIT
As to B2, the binding result in assay [3] and in assay [4] was “binds” throughout.
